## Cleaved PARP after 72 h of treatment

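Human melanoma cell lines in 1,536-well plates were treated with two drugs together for 72 h, then fixed, stained and imaged. Values are the share of nuclei positive for cleaved PARP as a percentage of the same share in the DMSO control: 100 is the control level, higher means more apoptosis. Every drug was used at one fixed concentration, the higher of two screened. No replicate spread is given; individual values may be noisy. Basal and induced levels differ widely between cell lines.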 An unselected part of the screen is shown.

Drugs:
temozolomide (10000 nM): Cn1nnc2c(C(N)=O)ncn2c1=O
dorsomorphin (2000 nM): c1cc(-c2cnn3cc(-c4ccc(OCCN5CCCCC5)cc4)cnc23)ccn1
nutlin-3 (500 nM): COc1ccc(C2=N[C@@H](c3ccc(Cl)cc3)[C@@H](c3ccc(Cl)cc3)N2C(=O)N2CCNC(=O)C2)c(OC(C)C)c1
erlotinib (4000 nM): C#Cc1cccc(Nc2ncnc3cc(OCCOC)c(OCCOC)cc23)c1
fingolimod (10000 nM): CCCCCCCCc1ccc(CCC(N)(CO)CO)cc1
GW0742 (10000 nM): Cc1cc(SCc2sc(-c3ccc(C(F)(F)F)c(F)c3)nc2C)ccc1OCC(=O)O
sorafenib (2000 nM): CNC(=O)c1cc(Oc2ccc(NC(=O)Nc3ccc(Cl)c(C(F)(F)F)c3)cc2)ccn1
NVP-BEZ235 (20 nM): Cn1c(=O)n(-c2ccc(C(C)(C)C#N)cc2)c2c3cc(-c4cnc5ccccc5c4)ccc3ncc21
veliparib (7000 nM): C[C@]1(c2nc3c(C(N)=O)cccc3[nH]2)CCCN1

| # | Combination | IPC-298 | SK-MEL-30 | LOX IMVI | WM115 |
|---|---|---|---|---|---|
| 1 | temozolomide and NVP-BEZ235 | 179 | 41.5 | 122 | 178 |
| 2 | sorafenib and GW0742 | 145 | 119 | 103 | 136 |
| 3 | erlotinib and GW0742 | 54.2 | 78.8 | 78.9 | 51.5 |
| 4 | veliparib and fingolimod | 44.4 | 1660 | 371 | 3020 |
| 5 | veliparib and NVP-BEZ235 | 131 | 170 | 133 | 294 |
| 6 | dorsomorphin and erlotinib | 173 | 172 | 93.9 | 283 |
| 7 | GW0742 and veliparib | 139 | 49.7 | 46.9 | 136 |
| 8 | GW0742 and NVP-BEZ235 | 112 | 74.5 | 265 | 132 |
| 9 | dorsomorphin and nutlin-3 | 324 | 169 | 117 | 215 |
| 10 | nutlin-3 and temozolomide | 59.4 | 107 | 177 | 614 |
| 11 | nutlin-3 and veliparib | 66.4 | 286 | 227 | 88.7 |
| 12 | nutlin-3 and fingolimod | 440 | 2440 | 192 | 8630 |
| 13 | nutlin-3 and erlotinib | 347 | 58.8 | 116 | 136 |
| 14 | dorsomorphin and GW0742 | 140 | 156 | 102 | 88.0 |
| 15 | sorafenib and fingolimod | 427 | 1530 | 1610 | 1680 |
| 16 | temozolomide and veliparib | 135 | 127 | 230 | 512 |
| 17 | sorafenib and veliparib | 89.4 | 68.7 | 230 | 60.7 |
| 18 | NVP-BEZ235 and erlotinib | 265 | 175 | 58.8 | 384 |
| 19 | temozolomide and fingolimod | 185 | 1610 | 330 | 1590 |
| 20 | GW0742 and fingolimod | 213 | 674 | 126 | 498 |
| 21 | NVP-BEZ235 and nutlin-3 | 51.8 | 133 | 265 | 141 |
| 22 | dorsomorphin and sorafenib | 83.3 | 53.8 | 84.6 | 156 |
| 23 | sorafenib and erlotinib | 91.2 | 147 | 106 | 114 |
| 24 | sorafenib and NVP-BEZ235 | 76.0 | 65.8 | 196 | 219 |
| 25 | nutlin-3 and sorafenib | 82.0 | 42.8 | 42.2 | 62.0 |
| 26 | temozolomide and sorafenib | 143 | 137 | 120 | 185 |
| 27 | fingolimod and dorsomorphin | 38.4 | 472 | 184 | 415 |
| 28 | fingolimod and erlotinib | 753 | 2150 | 924 | 2600 |
| 29 | nutlin-3 and GW0742 | 82.9 | 137 | 188 | 103 |
| 30 | temozolomide and dorsomorphin | 125 | 166 | 62.6 | 128 |

Repeated from the top, 3 entries:

Combination	IPC-298	SK-MEL-30	LOX IMVI	WM115
temozolomide and NVP-BEZ235	179	41.5	122	178
sorafenib and GW0742	145	119	103	136
erlotinib and GW0742	54.2	78.8	78.9	51.5

Data from the primary screen of doi:10.1371/journal.pone.0140310, rounded.